Data reported in article PMC12874371, “Screening of FDA-Approved Small Molecules to Discover Inhibitors of the Pseudomonas aeruginosa Quorum-Sensing Enzyme, PqsE” (Biochemistry, 2026).
No constants are given. Whether binding was seen depends on the method and setting. In cells and extracts the contact can be indirect. Some binding calls cover weakened binding; strength is not graded here.

Amino acid sequences for entries named in this document (tags omitted).
UniProt P54292: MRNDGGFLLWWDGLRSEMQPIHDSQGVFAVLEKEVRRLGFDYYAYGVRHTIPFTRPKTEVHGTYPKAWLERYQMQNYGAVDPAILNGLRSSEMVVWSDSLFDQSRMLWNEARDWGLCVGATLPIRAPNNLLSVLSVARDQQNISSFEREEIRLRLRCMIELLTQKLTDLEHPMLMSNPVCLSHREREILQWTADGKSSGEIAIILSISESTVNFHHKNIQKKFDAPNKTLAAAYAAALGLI
UniProt P20581: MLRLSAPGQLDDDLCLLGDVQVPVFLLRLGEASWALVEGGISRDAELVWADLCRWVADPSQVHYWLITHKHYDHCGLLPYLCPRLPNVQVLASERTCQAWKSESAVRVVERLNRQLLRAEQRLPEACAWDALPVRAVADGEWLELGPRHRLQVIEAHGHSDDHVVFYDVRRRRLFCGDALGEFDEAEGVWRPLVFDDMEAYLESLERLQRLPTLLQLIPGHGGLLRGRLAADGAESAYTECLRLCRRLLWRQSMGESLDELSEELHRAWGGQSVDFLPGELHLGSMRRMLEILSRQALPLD

Target: RhlR (Pseudomonas aeruginosa) (UniProt P54292)
Test: pull-down; in vitro pull-down of the PqsE-RhlR complex in the presence of Vorinostat, Trazodone or Apomorphine; bait and conditions not told in the text shown

Question: For “PqsE (from UniProt P20581 1-301) (enzyme)”, which binding is on record?
Answer: binds
